# Assay results taken from the supplement of paper PMC9135407.
# Values joined by “and” are separate entries in the source; they are usually repeats but may differ in a detail not shown here. Equal entries are not always repeated. Structures can show the parent of a compound that is named as a salt. ± gives the standard deviation of the averaged measurements. The list shows a part of the results. Baselines shift from plate to plate; read single values as rough.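 Culture-activated primary human stellate myofibroblasts, where regained lipid droplets signal inactivation. Value: share of Hoechst-counted cells above a per-plate Bodipy cutoff, in duplicate wells, with DMSO negative and nortriptyline positive controls on each plate. Hits: a control-normalized score above the plate's top-tenth-percentile nortriptyline wells, or one of a plate's three best wells. Final well concentrations are not given.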
# Test system: primary human hepatic stellate cells (donor 1)
# Assay: percent Bodipy-positive cells; higher = more lipid droplet accumulation
# Conditions: 48 h
# [1] = library stock concentration: 10 mM
# [2] = library stock concentration: 3.33 mM
# [3] = library stock concentration: 1 mM
compound,measurement,setting,value
COc1ccc(CN2C(=O)C(=O)c3cc(OC(F)(F)F)ccc32)cc1,percent Bodipy-positive cells,[1],29.2 ± 2.5%
CCOC(=O)c1cnc2ccc(-c3cncc(NS(=O)(=O)c4ccccc4)c3)cn12,percent Bodipy-positive cells,[1],97.4 ± 2.6%
Cc1nnc(C(=O)NC(C)(C)c2nc(C(=O)NCc3ccc(F)cc3)c(O)c(=O)n2C)o1 [Raltegravir (MK-0518)],percent Bodipy-positive cells,[2],6.84 ± 0.21%
same,percent Bodipy-positive cells,[1],11.2 ± 1.1%
NCCC[C@](N)(C(=O)O)C(F)F (racemic) [DL-alpha-Difluoromethylornithine hydrochloride],percent Bodipy-positive cells,[1],40.9 ± 32%
CC(=O)OCC(=O)[C@@]1(O)[C@@H](C)C[C@H]2[C@@H]3CCC4=CC(=O)C=C[C@]4(C)[C@@]3(F)[C@@H](O)C[C@@]21C,percent Bodipy-positive cells,[1],20.7 ± 4.6%
c1ccc(NCc2ccc(CNc3ccccn3)cc2)nc1,percent Bodipy-positive cells,[2],9.67 ± 1.9%
same,percent Bodipy-positive cells,[1],21.3 ± 8.8%
Oc1ccc2ccccc2c1 [beta-NAPHTHOL],percent Bodipy-positive cells,[1],20.1 ± 5.6%
CCOC(=O)[C@@H](N)Cc1ccc(-c2cc(O[C@H](c3ccc(Cl)cc3-n3ccc(C)n3)C(F)(F)F)nc(N)n2)cc1 [Telotristat Etiprate (LX 1606 Hippurate)],percent Bodipy-positive cells,[2],18.5 ± 9.2%
same,percent Bodipy-positive cells,[1],92 ± 4.4%
CCCC/C=C\CCCCCCCC(=O)OC [Myristoleic Acid methyl ester],percent Bodipy-positive cells,[3],14.2 ± 7.7%
COc1c2occc2cc2ccc(=O)oc12 [Methoxsalen],percent Bodipy-positive cells,[2],10.5 ± 1.4%
same,percent Bodipy-positive cells,library stock concentration: 9.3 mM,3.75 ± 2.8%
COc1c2occc2cc2ccc(=O)oc12 [Methoxy-8-psoralen],percent Bodipy-positive cells,,26.6 ± 5.9%
N=C(NCCCCCCNC(=N)NC(=N)Nc1ccc(Cl)cc1)NC(=N)Nc1ccc(Cl)cc1 [Chlorhexidine],percent Bodipy-positive cells,,40.2 ± 14%
same,percent Bodipy-positive cells,library stock concentration: 3.5 mM,3.92 ± 0.69%
same,percent Bodipy-positive cells,[1],10.1 ± 3.3%
N=C(NCCCCCCNC(=N)NC(=N)Nc1ccc(Cl)cc1)NC(=N)Nc1ccc(Cl)cc1 [Chlorhexidine HCl],percent Bodipy-positive cells,[2],24.2 ± 5.1%
same,percent Bodipy-positive cells,[1],100%
NCc1ccccc1CC(=O)N[C@@H]1C(=O)N2C(C(=O)O)=C(CSc3nnnn3CC(=O)O)CS[C@H]12 [Ceforanide],percent Bodipy-positive cells,,27.7 ± 5.8%
CN1CCN(C2=Nc3ccccc3Oc3ccc(Cl)cc32)CC1 [Loxapine succinate],percent Bodipy-positive cells,,52.5 ± 7.3%
same,percent Bodipy-positive cells,library stock concentration: 4.5 mM,39.1 ± 2.8%
same,percent Bodipy-positive cells,[1],78.7% and 66.3%
CN1CCN(C2=Nc3ccccc3Oc3ccc(Cl)cc32)CC1,percent Bodipy-positive cells,[1],53.9 ± 2.9%
CN1CCN(C2=Nc3ccccc3Oc3ccc(Cl)cc32)CC1 [Loxapine Succinate],percent Bodipy-positive cells,[2],30.5 ± 9.9%
same,percent Bodipy-positive cells,[1],74.7 ± 3.5%
CC(C)CC(N)=O,percent Bodipy-positive cells,[1],49.4 ± 5%
CC(C)CC(N)=O [Isovaleramide],percent Bodipy-positive cells,[2],14.7 ± 3.2%
same,percent Bodipy-positive cells,[1],50.6 ± 17%
CC1c2cccc(O)c2C(O)=C2C(=O)C3(O)C(O)=C(C(N)=O)C(=O)C(N(C)C)C3C(O)C21 (stereo unspecified) [Doxycycline hydrochloride],percent Bodipy-positive cells,[1],45.4 ± 7.9%
Clc1ccc(CCC(Cn2ccnc2)Sc2c(Cl)cccc2Cl)cc1 (stereo unspecified) [Butoconazole nitrate],percent Bodipy-positive cells,,32 ± 1.6%
same,percent Bodipy-positive cells,[2],8.75 ± 0.48%
same,percent Bodipy-positive cells,[1],33.1 ± 12%
Clc1ccc(CCC(Cn2ccnc2)Sc2c(Cl)cccc2Cl)cc1 (stereo unspecified),percent Bodipy-positive cells,[1],59.4 ± 12%
C[C@@]1(C(=O)Nc2ccc(F)nc2)CCCN1c1nc(Nc2cc(C3CC3)n[nH]2)c2cccn2n1,percent Bodipy-positive cells,[2],7.85 ± 2.3%
same,percent Bodipy-positive cells,[1],70.6 ± 8.9%
CC1(C)CC(Nc2nccc(-c3cnn(-c4ccccc4)c3)n2)CC(C)(C)N1,percent Bodipy-positive cells,[1],99.73 ± 0.38%
CN(C)C(=O)Nc1cccc(-c2ccc(N(C)C)cc2)c1 [Atglistatin],percent Bodipy-positive cells,[2],25.2 ± 0.82%
same,percent Bodipy-positive cells,[1],28.7 ± 1.6%
N[C@H](C(=O)O)c1ccc(O)c(C(=O)O)c1 [(S)-3-Carboxy-4-hydroxyphenylglycine],percent Bodipy-positive cells,[1],5.45 ± 2.5%
N#Cc1ccc(C(c2ccc(C#N)cc2)n2cncn2)cc1 [Letrozole],percent Bodipy-positive cells,,8.36 ± 1.1%
same,percent Bodipy-positive cells,[2],11.1 ± 3.4%
same,percent Bodipy-positive cells,library stock concentration: 7 mM,13.1 ± 6.5%
same,percent Bodipy-positive cells,[1],13.3 ± 3.3%
N#Cc1ccc(C(c2ccc(C#N)cc2)n2cncn2)cc1,percent Bodipy-positive cells,[1],7.38 ± 0.41%
CCCCC/C=C\C[C@H](O)/C=C/C=C\C/C=C\CCCC(=O)O,percent Bodipy-positive cells,library stock concentration: 100 uM,10.8 ± 6.6%
C[N+]1(C)CCC(OC(=O)C(O)(c2ccccc2)C2CCCC2)C1 (stereo unspecified),percent Bodipy-positive cells,[1],5.93 ± 0.13%
C[N+]1(C)CCC(OC(=O)C(O)(c2ccccc2)C2CCCC2)C1 (stereo unspecified) [Glycopyrrolate],percent Bodipy-positive cells,,8.31 ± 0.69%
same,percent Bodipy-positive cells,library stock concentration: 5 mM,1.09 ± 1.5%
C[C@@H]1C[C@H]2O[C@@H]2/C=C\C=C\C(=O)Cc2c(Cl)c(O)cc(O)c2C(=O)O1 [Radicicol],percent Bodipy-positive cells,[3],54.2 ± 5.8%
O=C(Nc1cccc(Cl)c1)c1ccccn1,percent Bodipy-positive cells,[2],8.37 ± 1%
same,percent Bodipy-positive cells,[1],13.7 ± 4.2%
O=C(Nc1ccc([N+](=O)[O-])cc1Cl)c1cc(Cl)ccc1O [Niclosamide],percent Bodipy-positive cells,library stock concentration: 6.1 mM,99.2 ± 0.21%
same,percent Bodipy-positive cells,[1],99.56 ± 0.0064%
Nc1c(CC(=O)O)cccc1C(=O)c1ccccc1 [Amfenac Sodium Monohydrate],percent Bodipy-positive cells,[2],8.18 ± 1.5%
same,percent Bodipy-positive cells,[1],25.6 ± 2.2%
CC(C)(C)C(=O)Nc1ccc2c(c1)C(=O)C(=O)c1ccccc1-2,percent Bodipy-positive cells,[2],96 ± 5.7%
same,percent Bodipy-positive cells,[1],100%
CN1CCCN(C(c2ccccc2)c2ccc(Cl)cc2)CC1.Cl.Cl (stereo unspecified) [Homochlorcyclizine dihydrochloride],percent Bodipy-positive cells,,86.84 ± 0.2%
N=C1NC(=O)/C(=C/c2ccc(O)cc2)S1 [Mirin],percent Bodipy-positive cells,[3],9.05 ± 2.4%

# Part of the list above, set out differently:
compound	measurement	setting	value
Cc1nnc(C(=O)NC(C)(C)c2nc(C(=O)NCc3ccc(F)cc3)c(O)c(=O)n2C)o1 [Raltegravir (MK-0518)]	percent Bodipy-positive cells	[2]	6.84 ± 0.21%
CN(C)C(=O)Nc1cccc(-c2ccc(N(C)C)cc2)c1 [Atglistatin]	percent Bodipy-positive cells	[1]	28.7 ± 1.6%
